Results from article PMC5689601.

Target: enhancer of zeste homolog 2 (EZH2) (rat (endogenous in PC 12))
Assay: co-IP; lysates of PC 12 cells, untreated or treated with Pb (lead acetate); lysis and IP buffer 50 mM Tris pH 7.4, 150 mM NaCl, 0.1 % CHAPS, 100 uM deferoxamine, 1 mM EDTA (IP buffer with 0.1 mg/mL BSA); 5 ug anti-H3K27me3, anti-EZH2 or unimmune IgG overnight at 4 C, protein A/G beads; Western blot with anti-EZH2, anti-Vav1, anti-EED, anti-H3K27me3

B1: Vav1 (protein, UniProt P54100 1-843)
chain: MELWRQCTHWLIQCRVLPPSHRVTWEGAQVCELAQALRDGVLLCQLLNNLLPHAINLREVNLRPQMSQFLCLKNIRTFLSTCCEKFGLKRSELFEAFDLFDVQDFGKVIYTLSALSWTPIAQNKGIMPFPTEDSALGDEDIYSGLSDQIDDTAEEDEDLYDCVENEEAEGDEIYEDLMRSESVPTPPKMTEYDKRCCCLREIQQTEEKYTDTLGSIQQHFMKPLQRFLKPQDMETIFVNIEELLSVHTHFLKELKDALSGPGATMLYQVFIKYKERFLVYGRYCSQVESAIKHLDQVATAREDVQMKLEECSQRANNGRFTLRDLLMVPMQRVLKYHLLLQELVKHTQDTTEKENLRLALDAMRDLAQCVNEVKRDNETLRQITNFQLSIENLDQSLANYGRPKIDGELKITSVERRSKTDRYAFLLDKALLICKRRGDSYDLKASVNLHSFQVRDDSSGERDNKKWSHMFLLIEDQGAQGYELFFKTRELKKKWMEQFEMAISNIYPENATANGHDFQMFSFEETTSCKACQMLLRGTFYQGYRCYRCRAPAHKECLGRVPPCGRQDFSGTMKKDKLHRRAQDKKRNELGLPKMEVCQEYYGIPPPPGAFGPFLRLNPGDIVELTKAEAEHTWWEGRNTATNEVGWFPCNRVRPYVHGPPQDLSVHLWYAGPMERAGAEGILTNRSDGTYLVRQRVKDTAEFAISIKYNVEVKHIKIMTSEGLYRITEKKAFRGLPELVEFYQQNSLKDCFKSLDTTLQFPYKEPERRAINKPPVGSTKYFGTAKARYDFCARDRSELSLKEGDIIKILNKKGQQGWWRGEIYGRIGWFPSNYVEEDYSEYC
- binding: binds

Results are given in words; binding and its absence hold for the method and conditions named. In cells and extracts the contact can be indirect. Binding calls can cover weak binding; strength is not graded here.
